1 compound from patent US7253211B2, “(R)-chiral halogenated substituted fused heterocyclic amino compounds useful for inhibiting cholesterol ester transfer protein activity” (Pfizer Inc., priority 1999, dated 2007) can be followed below.

Sequences of proteins named here, by UniProt entry; tags and fusion partners are left off. Residues count along the entry.
UniProt P11597, 18-493 limits assumed: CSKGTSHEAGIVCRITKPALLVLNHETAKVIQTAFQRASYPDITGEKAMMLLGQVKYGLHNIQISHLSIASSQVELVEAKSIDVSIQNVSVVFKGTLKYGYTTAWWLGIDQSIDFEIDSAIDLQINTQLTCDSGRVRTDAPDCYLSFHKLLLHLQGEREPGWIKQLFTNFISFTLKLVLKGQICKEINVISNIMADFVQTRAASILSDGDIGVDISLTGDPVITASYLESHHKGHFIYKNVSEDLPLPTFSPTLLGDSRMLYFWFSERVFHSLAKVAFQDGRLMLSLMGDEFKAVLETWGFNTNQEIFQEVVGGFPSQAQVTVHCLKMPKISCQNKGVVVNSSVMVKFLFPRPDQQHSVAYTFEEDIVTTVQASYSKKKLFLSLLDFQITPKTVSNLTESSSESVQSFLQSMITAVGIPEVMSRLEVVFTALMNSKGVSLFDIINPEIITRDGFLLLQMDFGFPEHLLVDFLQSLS

In the experiment the target is CETP (Homo sapiens, UniProt P11597). The experiment can be described thus: Assay of CETP Inhibition Using Purified Components (Reconstituted Buffer Assay). Type of experiment: biochemical.

Structures were worked out from names or drawings and are uncertain.

For `O[C@H](CN(Cc1cccc(OC(F)(F)F)c1)c1cccc(OCc2cc(F)cc(F)c2)c1)C(F)(F)F`, the IC50 was determined as 860 nM.

A word on the IC50: it is the concentration at which inhibition is half-maximal.
